# Reference: article PMC9723622
# Amino acid sequences for entries named in this document (tags omitted).
# UniProt Q9ULW0: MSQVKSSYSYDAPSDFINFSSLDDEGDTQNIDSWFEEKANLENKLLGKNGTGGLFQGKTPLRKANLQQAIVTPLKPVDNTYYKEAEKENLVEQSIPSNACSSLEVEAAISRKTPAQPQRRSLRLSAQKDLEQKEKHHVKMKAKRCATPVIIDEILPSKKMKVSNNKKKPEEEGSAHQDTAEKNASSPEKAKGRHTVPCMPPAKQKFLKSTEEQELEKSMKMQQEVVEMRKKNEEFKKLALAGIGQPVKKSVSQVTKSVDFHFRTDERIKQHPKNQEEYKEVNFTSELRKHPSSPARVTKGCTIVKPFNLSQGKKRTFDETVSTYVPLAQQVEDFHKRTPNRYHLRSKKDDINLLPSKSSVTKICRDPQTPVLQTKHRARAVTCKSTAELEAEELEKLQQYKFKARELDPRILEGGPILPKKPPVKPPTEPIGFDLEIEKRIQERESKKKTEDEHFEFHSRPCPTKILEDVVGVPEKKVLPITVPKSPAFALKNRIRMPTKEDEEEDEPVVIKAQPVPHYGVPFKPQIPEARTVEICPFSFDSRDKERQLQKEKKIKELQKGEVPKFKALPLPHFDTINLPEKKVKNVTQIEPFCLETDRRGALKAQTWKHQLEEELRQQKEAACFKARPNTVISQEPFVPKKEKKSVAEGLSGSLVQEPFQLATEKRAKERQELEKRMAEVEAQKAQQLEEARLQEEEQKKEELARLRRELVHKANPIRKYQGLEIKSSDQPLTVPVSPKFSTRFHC
# UniProt P09874: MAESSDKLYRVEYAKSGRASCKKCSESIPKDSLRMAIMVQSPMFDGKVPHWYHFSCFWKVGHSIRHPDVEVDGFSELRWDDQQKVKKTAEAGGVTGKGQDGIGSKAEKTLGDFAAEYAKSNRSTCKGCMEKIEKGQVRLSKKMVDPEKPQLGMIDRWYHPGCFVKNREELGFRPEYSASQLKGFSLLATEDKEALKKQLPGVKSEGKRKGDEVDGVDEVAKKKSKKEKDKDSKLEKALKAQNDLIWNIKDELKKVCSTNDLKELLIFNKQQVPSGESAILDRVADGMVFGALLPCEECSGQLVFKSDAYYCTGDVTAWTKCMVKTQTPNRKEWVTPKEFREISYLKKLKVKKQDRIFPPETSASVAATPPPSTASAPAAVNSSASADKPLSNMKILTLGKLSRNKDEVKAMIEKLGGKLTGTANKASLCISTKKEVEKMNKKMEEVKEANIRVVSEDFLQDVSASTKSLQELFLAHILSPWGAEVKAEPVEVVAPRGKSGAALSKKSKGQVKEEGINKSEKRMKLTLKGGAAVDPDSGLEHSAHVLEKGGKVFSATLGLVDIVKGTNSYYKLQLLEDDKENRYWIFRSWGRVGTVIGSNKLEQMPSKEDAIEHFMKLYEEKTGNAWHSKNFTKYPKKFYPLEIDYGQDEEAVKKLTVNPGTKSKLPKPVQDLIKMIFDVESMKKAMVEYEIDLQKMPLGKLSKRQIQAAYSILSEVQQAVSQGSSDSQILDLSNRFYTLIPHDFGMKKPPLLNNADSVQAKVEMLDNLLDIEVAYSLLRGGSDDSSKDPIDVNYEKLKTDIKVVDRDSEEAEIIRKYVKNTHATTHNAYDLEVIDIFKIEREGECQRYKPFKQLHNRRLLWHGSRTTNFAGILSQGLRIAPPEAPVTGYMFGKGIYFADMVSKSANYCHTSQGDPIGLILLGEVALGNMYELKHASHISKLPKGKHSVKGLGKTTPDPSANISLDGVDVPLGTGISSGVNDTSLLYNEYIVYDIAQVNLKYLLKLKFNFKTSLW
# UniProt P12956: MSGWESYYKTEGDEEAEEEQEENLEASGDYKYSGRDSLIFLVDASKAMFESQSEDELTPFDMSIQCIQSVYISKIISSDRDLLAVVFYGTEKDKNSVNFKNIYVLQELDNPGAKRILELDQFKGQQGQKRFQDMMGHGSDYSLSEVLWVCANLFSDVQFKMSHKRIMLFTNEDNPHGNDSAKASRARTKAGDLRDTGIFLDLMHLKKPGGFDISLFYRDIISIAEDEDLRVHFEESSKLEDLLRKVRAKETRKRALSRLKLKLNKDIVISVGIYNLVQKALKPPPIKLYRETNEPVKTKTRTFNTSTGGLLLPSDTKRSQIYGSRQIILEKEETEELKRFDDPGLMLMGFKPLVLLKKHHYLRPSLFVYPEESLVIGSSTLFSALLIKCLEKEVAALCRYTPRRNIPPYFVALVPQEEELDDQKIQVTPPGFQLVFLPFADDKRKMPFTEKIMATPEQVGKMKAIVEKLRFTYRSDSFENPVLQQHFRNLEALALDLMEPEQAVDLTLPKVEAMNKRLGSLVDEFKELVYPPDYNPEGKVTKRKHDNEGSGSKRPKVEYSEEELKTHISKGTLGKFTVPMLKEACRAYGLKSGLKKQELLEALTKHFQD
# UniProt Q86WJ1: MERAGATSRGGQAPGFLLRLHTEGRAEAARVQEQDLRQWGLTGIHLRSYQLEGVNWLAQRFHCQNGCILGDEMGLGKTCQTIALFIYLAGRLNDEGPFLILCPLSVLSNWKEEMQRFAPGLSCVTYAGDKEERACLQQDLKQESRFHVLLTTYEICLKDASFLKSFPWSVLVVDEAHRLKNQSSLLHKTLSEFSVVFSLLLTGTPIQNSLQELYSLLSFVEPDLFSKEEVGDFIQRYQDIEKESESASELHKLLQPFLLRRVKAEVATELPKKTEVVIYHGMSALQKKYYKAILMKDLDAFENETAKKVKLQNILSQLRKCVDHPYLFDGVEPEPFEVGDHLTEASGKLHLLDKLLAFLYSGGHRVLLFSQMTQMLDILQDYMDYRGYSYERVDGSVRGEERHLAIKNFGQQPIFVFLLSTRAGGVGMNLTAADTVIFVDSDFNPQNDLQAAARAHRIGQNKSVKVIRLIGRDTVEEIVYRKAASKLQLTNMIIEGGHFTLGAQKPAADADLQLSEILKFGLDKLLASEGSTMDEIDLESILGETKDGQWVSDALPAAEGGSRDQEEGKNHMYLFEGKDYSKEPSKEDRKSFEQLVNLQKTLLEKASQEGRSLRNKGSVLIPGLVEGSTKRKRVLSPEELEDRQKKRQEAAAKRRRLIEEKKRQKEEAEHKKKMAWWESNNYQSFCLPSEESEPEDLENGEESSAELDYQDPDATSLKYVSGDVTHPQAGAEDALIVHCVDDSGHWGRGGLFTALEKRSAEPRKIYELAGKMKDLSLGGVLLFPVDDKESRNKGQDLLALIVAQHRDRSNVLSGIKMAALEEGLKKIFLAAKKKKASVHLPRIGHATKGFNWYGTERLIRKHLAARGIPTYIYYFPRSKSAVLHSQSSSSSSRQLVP
# No constants are given. Whether binding was seen depends on the method and setting. Binding seen in cells or lysates may run through a third protein. Some entries that bind do so weakly or less than the wild type.
# Columns and labels:
# [1] = target: GFP-tagged TPX2, full length (expressed in U2OS cells) (UniProt Q9ULW0); test: co-IP; GFP-TPX2 precipitated (GFP-IP), Western blot for endogenous PARP1; also after control or HPF1 knock-down
# [2] = target: endogenous Targeting protein for Xklp2 (TPX2) (human (endogenous in U2OS and HEK293T)) (UniProt Q9ULW0); test: co-IP; antibody to endogenous TPX2 (or IgG) on Dynabeads Protein G, whole cell lysate, 2 h 4°C, five washes with modified RIPA buffer, Western blot
# [3] = target: endogenous Targeting protein for Xklp2 (TPX2) (human (endogenous in U2OS and HEK293T)) (UniProt Q9ULW0); test: proximity ligation; Duolink PLA with antibodies to the endogenous proteins in fixed, permeabilised cells; DMSO or hydroxyurea 2 or 18 h; control, TPX2 knock-down
binding [1],binding [2],binding [3],Substance
binds,binds,binds,endogenous PARP1 (from UniProt P09874 1-1014) (enzyme)
–,binds,–,XRCC6 (from UniProt P12956 1-609)
–,binds,–,CHD1L (from UniProt Q86WJ1 1-897)
